Most values come without repeats; read them as rough.

The test system of the assay is DHK short-chain dehydrogenase reductase (Debaryomyces hansenii, Q6BTD7). The assay can be described thus: apparent turnover number kcat for ketone reduction (NADPH consumption, 100 uM substrate) (s-1); higher = faster reduction of the ketone by the enzyme. The following applies: substrate concentration 100 µM; NADPH 100 µM; pH 7.4; 25 °C. As to the method:
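Purified N-His6 DHK (unannotated SDR, Debaryomyces hansenii) was screened against a prochiral ketone library: 100 uM substrate, 100 uM NADPH, 1% BSA, 4% DMSO in 100 mM sodium phosphate / 100 mM NaCl pH 7.4 at 25 C, ~27 nM enzyme. Rate was followed by NADPH depletion at 340 nm and reported as apparent kcat (s-1) at a single substrate concentration; no replicates stated.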
In the case of `O=C(CN1C(=O)c2cccc([N+](=O)[O-])c2C1=O)OCC(=O)c1ccc(Cl)c(Cl)c1`, the “apparent turnover number kcat” value came out at 4.46. For `CC(=O)c1cccc(S(=O)(=O)Nc2ccccc2CO)c1` the value was 8.14; for `O=C1C=C(c2ccccc2)CC(c2cccs2)C1n1nnc([N+](=O)[O-])n1` (configuration not stated), 0.0349; for `Cc1ccc(Nc2cc(N(C)C)c3noc4c3c2C(=O)c2ccccc2-4)cc1`, 4.89.

Regarding `Cc1ccc(C(=O)c2ccc(N3CCOCC3)c([N+](=O)[O-])c2)cc1`, the “apparent turnover number kcat” value was found to be 3.71. For `Cc1sc2ncnc(SCC(=O)C(C#N)=C3Nc4ccccc4N3)c2c1C` the value was 3.73; for `CN1C(=O)C(O)=C(C(=O)c2ccc(Br)cc2)C1c1cccc([N+](=O)[O-])c1` (configuration not stated), 4.03. For `CC(=O)N1CN2CN(C(C)=O)CC(C(=O)c3ccccc3)(C2)C1` the value was 4.75; for `Cc1cccc(C(=O)OCC(=O)C(C#N)=C2Nc3ccccc3N2)c1O`, 4.53. In the case of `COc1ccc(O)c(C(=O)c2cnn(C(=O)c3ccc(O)cc3)c2)c1`, the “apparent turnover number kcat” value came to 5.93. Regarding `O=C(CN1C(=O)c2ccccc2C1=O)OCC(=O)c1ccc2c(c1)OCO2`, the “apparent turnover number kcat” value worked out at 4.26.

Turning to `O=C(CN1C(=O)C2CCCCC2C1=O)OCC(=O)c1c[nH]c2ccccc12` (configuration not stated), the “apparent turnover number kcat” value was 3.24. For `CCCOc1ccc(C2CC(=O)NC3=C2C(=O)CCC3)cc1` (configuration not stated) the value was 4.69; for `Cc1[nH]c2ccccc2c1C(=O)C(=O)Nc1c(C(N)=O)oc2ccccc12`, 3.42; for `CC(C)Oc1ccc(C2CC(=O)NC3=C2C(=O)CCC3)cc1` (configuration not stated), 3.99. For `CC(=O)C1=C(O)C(=O)N(CC(=O)[O-])C1c1cccc([N+](=O)[O-])c1` (configuration not stated) the value was 5.24; for `COc1ccc(O)c(C(=O)c2cnc3cc4c(cc3c2)OCCO4)c1`, 7.05; for `O=C(OCC(=O)c1cccc2ccccc12)c1ccccc1[N+](=O)[O-]`, 4.14. For `CCOc1ccc(NC(=O)CN2C(=O)C(=O)c3ccccc32)cc1` the value was 5.02. Take `O=C(NCc1nnnn1-c1ccc(F)cc1)C(=O)c1c[nH]c2ccccc12`: the “apparent turnover number kcat” value worked out at 4.37. For `CC(=O)c1ccc(NS(=O)(=O)c2cc([N+](=O)[O-])c(C)cc2C)cc1` the value was 5.36; for `O=C(Cn1cnc2c(nnn2Cc2ccccc2)c1=O)c1ccccc1`, 5.19. For `O=C1C(Cl)=C(N2CCN(c3ccc([N+](=O)[O-])cc3)CC2)C(=O)c2ccccc21` the value was 0.718; for `Cc1[nH]c2ccccc2c1C(=O)CSc1nnc(-c2cccnc2)o1`, 4.56; for `Cc1cnc(C(=O)OCC(=O)c2ccc3c(c2)CCCC3)cn1`, 4.56. For `O=C1OC(c2cccc([N+](=O)[O-])c2)C(C(=O)c2ccccc2)=C1O` (configuration not stated) the value was 0.462; for `O=C(COC(=O)c1ccc(Cl)s1)c1cc2ccccc2o1`, 4.88; for `Cc1ccc(OCC(=O)c2ccc3c(c2)CCC3)c([N+](=O)[O-])n1`, 5.02. On to `Cc1ccc(O)c(C(=O)c2cc(C#N)c(=O)n(-c3ccccn3)c2)c1`, for which the “apparent turnover number kcat” value amounted to 3.56. For `CC(=O)c1sc2nc(CSc3cc(C)c4cc(C)cc(C)c4n3)[nH]c(=O)c2c1C`, the “apparent turnover number kcat” value came to 4.97. For `N#Cc1ccc(C(=O)OCC(=O)c2cc3ccccc3o2)cc1` the value was 4.51; for `Cc1ccc(OCC(=O)c2ccc3c(c2)CCCC3)c([N+](=O)[O-])n1`, 5.92. For `O=C(CSc1nc(-c2ccccc2)cs1)c1ccc([N+](=O)[O-])cc1` the value was 5.04; for `O=C(c1ccccc1)c1ccc(N2CCCCC2)c([N+](=O)[O-])c1`, 4.42. As for `O=C(COC(=O)c1ccco1)c1ccc2ccccc2c1`, the “apparent turnover number kcat” value is 5.08. For `O=C1CN(C(=O)CCC(=O)c2ccc(Br)cc2)CCN1` the value was 3.62; for `O=C(CN1C(=O)c2ccc([N+](=O)[O-])cc2C1=O)c1ccc(Cl)s1`, 5.18. For `CC(=O)Nc1cccc(C(=O)OCC(=O)c2ccc3c(c2)OCO3)c1` the value was 5.82; for `CSc1ncc(Cl)c(C(=O)C(C#N)c2nc3ccccc3c(=O)[nH]2)n1` (configuration not stated), 4.45; for `N#CC(C(=O)COC(=O)c1n[nH]c2ccccc12)=C1Nc2ccccc2N1`, 4.97. For `CC(=O)c1cc(C#N)c(SCC(=O)c2cc(C)c(C)cc2C)nc1C` the value was 6.06.

On to `CC(NCc1ccc2c(c1)OCO2)=C1C(=O)c2ccccc2C1=O`, for which the “apparent turnover number kcat” value was determined as 4.88.

`O=C(CC(=O)c1ccc([N+](=O)[O-])cc1)Nc1ccc2c(c1)OCO2`: the “apparent turnover number kcat” value worked out at 6.21.

As to `O=C1c2ccccc2C(=O)c2c1ccc1c(=O)n(Cc3ccccc3)[nH]c21`, the “apparent turnover number kcat” value amounted to 4.31. For `O=C(CN1C(=O)c2cccc([N+](=O)[O-])c2C1=O)OCC(=O)c1ccccc1Cl` the value was 5.92; for `Cn1c(N)c(C(=O)c2ccc(Oc3ccccc3)cc2)c(=O)n(C)c1=O`, 4.48; for `Cc1ccc(C(=O)COC(=O)CN2C(=O)c3ccccc3C2=O)cc1`, 5.71. For `O=C1C(=O)N(CN2CCN(c3cccc(Cl)c3)CC2)c2ccccc21` the value was 6.23. For `CC(=O)c1cccc(N(CC(=O)Nc2ccccc2Br)S(C)(=O)=O)c1` the value was 4.18. Consider `CC(=O)c1cccc(N(CC(=O)N2CCCC2)S(C)(=O)=O)c1`, for which the “apparent turnover number kcat” value is 6.11. For `Cn1c(N)c(C(=O)CN2c3cccc4cccc(c34)S2(=O)=O)c(=O)n(C)c1=O` the value was 4.45; for `N#Cc1cc(C(=O)c2ccccc2O)cn(-c2nccs2)c1=O`, 7.51. For `Cc1cccc(C(=O)NNC2=CC(=O)CC(C)(C)C2)c1O` the value was 6.1. For `Cn1c(N)c(C(=O)CSc2nnc(-c3ccc4c(c3)OCO4)o2)c(=O)n(C)c1=O` the value was 3.13. Take `Cn1cccc1C(=O)OCC(=O)c1cc2ccccc2o1`: the “apparent turnover number kcat” value turned out to be 4.63.

On to `O=C1C=C(NNC(=O)c2cccnc2)CCC1`, for which the “apparent turnover number kcat” value stood at 5.28.

For `O=C(CCN1C(=O)c2cccc([N+](=O)[O-])c2C1=O)OCC(=O)c1ccc(F)cc1`, the “apparent turnover number kcat” value amounted to 3.97. For `COC(=O)c1cc(S(=O)(=O)Nc2ccc(C(C)=O)cc2)ccc1Cl` the value was 6.43.

Regarding `N#CC(C(=O)COC(=O)c1cc(=O)[nH]c(=O)[nH]1)=C1Nc2ccccc2N1`, the “apparent turnover number kcat” value is 5.94.

Turning to `O=C1COc2ccc(C(=O)COC(=O)c3ccco3)cc2N1`, the “apparent turnover number kcat” value was 4.89. As for `N#Cc1cc(C#N)c(SCC(=O)c2ccc(F)cc2)nc1N`, the “apparent turnover number kcat” value is 3.8. For `O=C(NNC(=O)c1ccccc1)C(=O)C1C(=O)Nc2ccccc21` (configuration not stated) the value was 6.42. For `Cc1occc1-c1nnc(SCC(=O)c2cc3ccccc3oc2=O)o1` the value was 8.72; for `CC(=O)c1cccc(S(=O)(=O)N2CCC(C(=O)[O-])CC2)c1`, 7.27.

For the compound `CC(=O)c1cccc(Nc2nc(-c3cc4ccccc4oc3=O)cs2)c1`, the “apparent turnover number kcat” value was found to be 4.14. `CC(=O)N(C1=C(Cl)C(=O)c2ccccc2C1=O)c1cccc(Cl)c1`: the “apparent turnover number kcat” value was 5.07. For `O=C(c1ccc(O)cc1O)c1ccc(O)cc1O` the value was 1.36. Regarding `C=CCn1c(SCC(=O)c2ccc3c(c2)OCCO3)nc2sc(CC)cc2c1=O`, the “apparent turnover number kcat” value worked out at 0.00204.

`O=C(CN1C(=O)c2cccc([N+](=O)[O-])c2C1=O)OCC(=O)c1ccc(Cl)s1`: the “apparent turnover number kcat” value was determined as 4.74. For `CC(=O)c1cccc(S(=O)(=O)Nc2ccc(C(=O)[O-])cc2)c1` the value was 0.461.

`N#Cc1cc(C(=O)c2ccccc2O)coc1=O`: the “apparent turnover number kcat” value worked out at 7.97. For `CC(=O)c1cccc(S(=O)(=O)Nc2cc(C(=O)[O-])ccc2C)c1` the value was 5.41.

The values are drawn from the supplement of paper PMC5249140, “Delineating Substrate Diversity of Disparate Short-Chain Dehydrogenase Reductase from Debaryomyces hansenii” (PLoS ONE, 2017).
